Source: PubChem BioAssay AID1224830 (NIAID, 2016)
This is a random part of about 18,000 reagents. About 2,900 of all reagents (16%) were called active. 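Calls are made per well; low scores hint the gene aids the LPS response, high scores that it dampens it.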 Repeated entries: four replicate wells of each siRNA pool.

Aim: 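Genes whose knock-down alters the TNF-alpha reporter response to LPS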 (primary screen)
Cell system: human THP-1 monocytic leukaemia cells, TNF dual-luciferase reporter clone, PMA-differentiated to macrophage-like cells
Reagent: siRNA pool against human genes, 50 nM
Duration: LPS for 4 h, given about 3 days after siRNA transfection
Challenge: bacterial LPS (TLR4 ligand), 10 ng/ml
Measured: 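TNF firefly reporter luminescence divided by renilla, normalised to the plate median, then turned into a robust z-score for each replicate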
Reading the numbers: TNF reporter robust z-score: higher = stronger TNF reporter response to LPS
Hit rule: 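Each well counts as active if its z-score is over 2.8 or under -1.5; controls are left without a call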

| gene symbol | TNF reporter robust z-score | activity call |
| --- | --- | --- |
| C3P1 | -0.9 | inactive |
| C3P1 | -0.47 | inactive |
| C3P1 | -0.08 | inactive |
| C3P1 | 0.01 | inactive |
| KRTAP4-5 | -0.12 | inactive |
| KRTAP4-5 | -0.05 | inactive |
| KRTAP4-5 | -0.64 | inactive |
| KRTAP4-5 | 0.16 | inactive |
| TAF9B | -0.05 | inactive |
| TAF9B | -0.24 | inactive |
| TAF9B | 0.19 | inactive |
| TAF9B | 0.38 | inactive |
| STAT4 | -0.74 | inactive |
| STAT4 | -0.42 | inactive |
| STAT4 | 0 | inactive |
| DARS1 | 1.18 | inactive |
| DARS1 | -0.03 | inactive |
| DARS1 | 0.46 | inactive |
| DARS1 | 1.27 | inactive |
| TSPAN8 | 0.25 | inactive |
| TSPAN8 | -0.16 | inactive |
| TSPAN8 | 0.27 | inactive |
| TSPAN8 | 0.44 | inactive |

7 entries from above in another layout.
gene symbol | TNF reporter robust z-score | activity call
KRTAP4-5 | 0.16 | inactive
TAF9B | -0.05 | inactive
TAF9B | -0.24 | inactive
TAF9B | 0.19 | inactive
TAF9B | 0.38 | inactive
STAT4 | -0.74 | inactive
STAT4 | -0.42 | inactive

Additional reagents follow.
| gene symbol | TNF reporter robust z-score | activity call |
| --- | --- | --- |
| TIMM8A | -0.74 | inactive |
| TIMM8A | 0.3 | inactive |
| TIMM8A | -0.9 | inactive |
| TIMM8A | 0.68 | inactive |
| CMTM8 | -0.15 | inactive |
| CMTM8 | 0.14 | inactive |
| CMTM8 | -0.04 | inactive |
| CMTM8 | -0.51 | inactive |
| NPHP4 | 0.02 | inactive |
| NPHP4 | 0.19 | inactive |
| NPHP4 | 0.16 | inactive |
| NPHP4 | -0.96 | inactive |
| FBXO5 | 1.7 | inactive |
| FBXO5 | 3.29 | active |
| FBXO5 | 1.92 | inactive |
| FBXO5 | 1.05 | inactive |
| UCP3 | -1.02 | inactive |
| UCP3 | -0.53 | inactive |
| UCP3 | -0.48 | inactive |
| UCP3 | -0.83 | inactive |
| POLR2A | -0.1 | inactive |
| POLR2A | -0.21 | inactive |
| POLR2A | 0.4 | inactive |
| POLR2A | -0.72 | inactive |
